Measurements: patent US12251411B2, “Methods of treating endometrial cancer using hemp extract” (Ecofibre USA Inc., priority 2021, dated 2025)

Tested on: patient derived organoids
Assay: Calculated IC50 of various agents on organoids derived from the chemoresistant patient (PD3D cell culture)
Type: cell-based, human
Details: organoids of the chemoresistant stage IV patient
Experimental: The IC50 values were calculated from such tests. This value indicates the dosage at which 50% of the organoids were killed due to treatment.

| SMILES | Calculated IC50 PD3D Cell Culture |
| --- | --- |
| COc1cc2c(c(OC)c1OC)-c1ccc(OC)c(=O)cc1[C@@H](NC(C)=O)CC2 [Colchicine] | Not Reached |
| CC(C)NCC(O)COc1cccc2ccccc12 (centres unmarked) [Propranolol] | Not Reached |
